# The list shows a part of the results.
# The chains behind the UniProt entries cited, without tags or fusion partners. Where a name states a change or a piece, a line headed by the entry shows the natural chain unless it says otherwise.
# UniProt Q9BQE9, whole entry, looked up: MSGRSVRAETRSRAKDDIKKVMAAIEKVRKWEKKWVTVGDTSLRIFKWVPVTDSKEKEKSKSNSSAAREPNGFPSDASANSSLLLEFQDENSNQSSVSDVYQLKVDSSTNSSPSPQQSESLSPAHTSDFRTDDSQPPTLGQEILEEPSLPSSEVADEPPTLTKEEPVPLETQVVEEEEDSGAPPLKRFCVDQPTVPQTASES
# UniProt O43521, whole entry, looked up: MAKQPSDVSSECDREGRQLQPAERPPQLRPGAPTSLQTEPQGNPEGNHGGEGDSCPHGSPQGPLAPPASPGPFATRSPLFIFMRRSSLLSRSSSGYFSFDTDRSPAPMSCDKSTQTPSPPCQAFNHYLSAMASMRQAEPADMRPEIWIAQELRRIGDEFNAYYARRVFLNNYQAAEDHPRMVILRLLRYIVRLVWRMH
# UniProt P38398, whole entry, looked up: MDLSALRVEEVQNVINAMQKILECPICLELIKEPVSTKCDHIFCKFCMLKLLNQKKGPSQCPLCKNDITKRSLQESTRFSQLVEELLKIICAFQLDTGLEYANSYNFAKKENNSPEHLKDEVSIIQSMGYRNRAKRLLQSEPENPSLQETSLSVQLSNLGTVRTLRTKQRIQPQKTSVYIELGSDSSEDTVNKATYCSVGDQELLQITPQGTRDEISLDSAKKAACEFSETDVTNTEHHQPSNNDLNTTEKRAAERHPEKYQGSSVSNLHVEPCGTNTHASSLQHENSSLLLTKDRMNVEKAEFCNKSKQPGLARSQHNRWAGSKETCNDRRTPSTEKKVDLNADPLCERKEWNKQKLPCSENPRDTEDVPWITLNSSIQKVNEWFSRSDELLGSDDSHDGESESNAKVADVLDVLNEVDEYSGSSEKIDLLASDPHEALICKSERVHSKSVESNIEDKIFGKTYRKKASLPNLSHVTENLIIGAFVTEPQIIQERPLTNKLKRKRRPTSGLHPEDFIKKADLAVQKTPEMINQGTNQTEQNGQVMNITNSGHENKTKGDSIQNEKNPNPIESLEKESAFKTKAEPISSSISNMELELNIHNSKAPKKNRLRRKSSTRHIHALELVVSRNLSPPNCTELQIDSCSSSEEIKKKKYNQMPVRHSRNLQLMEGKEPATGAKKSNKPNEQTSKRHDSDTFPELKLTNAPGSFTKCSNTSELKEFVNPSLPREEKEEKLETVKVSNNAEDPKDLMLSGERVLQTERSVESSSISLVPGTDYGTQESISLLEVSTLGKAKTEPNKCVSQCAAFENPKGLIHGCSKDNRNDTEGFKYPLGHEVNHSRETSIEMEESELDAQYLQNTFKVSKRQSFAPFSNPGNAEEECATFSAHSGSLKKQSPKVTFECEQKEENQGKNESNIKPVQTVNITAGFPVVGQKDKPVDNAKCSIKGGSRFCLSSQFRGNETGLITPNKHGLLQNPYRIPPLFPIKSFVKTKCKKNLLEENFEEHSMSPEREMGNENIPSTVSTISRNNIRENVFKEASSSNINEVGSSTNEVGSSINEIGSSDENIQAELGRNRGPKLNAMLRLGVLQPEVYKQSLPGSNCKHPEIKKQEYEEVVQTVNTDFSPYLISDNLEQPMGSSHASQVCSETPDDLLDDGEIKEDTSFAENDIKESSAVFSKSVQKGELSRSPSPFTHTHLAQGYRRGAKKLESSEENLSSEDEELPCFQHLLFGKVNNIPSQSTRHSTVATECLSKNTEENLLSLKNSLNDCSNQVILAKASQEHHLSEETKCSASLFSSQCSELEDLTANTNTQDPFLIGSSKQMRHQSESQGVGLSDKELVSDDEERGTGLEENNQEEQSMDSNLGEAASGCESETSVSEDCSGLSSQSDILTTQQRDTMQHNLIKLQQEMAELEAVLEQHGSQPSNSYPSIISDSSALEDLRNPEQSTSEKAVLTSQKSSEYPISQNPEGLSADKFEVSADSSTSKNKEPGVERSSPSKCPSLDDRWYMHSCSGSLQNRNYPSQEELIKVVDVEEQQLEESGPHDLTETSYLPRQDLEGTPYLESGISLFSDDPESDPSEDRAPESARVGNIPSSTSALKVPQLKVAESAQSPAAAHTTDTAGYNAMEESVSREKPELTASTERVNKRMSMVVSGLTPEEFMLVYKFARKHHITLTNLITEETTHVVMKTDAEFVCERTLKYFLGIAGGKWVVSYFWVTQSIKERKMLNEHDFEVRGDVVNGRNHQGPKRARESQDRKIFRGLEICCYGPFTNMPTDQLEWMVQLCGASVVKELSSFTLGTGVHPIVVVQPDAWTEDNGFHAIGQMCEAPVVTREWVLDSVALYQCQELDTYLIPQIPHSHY
# UniProt Q9NYM9: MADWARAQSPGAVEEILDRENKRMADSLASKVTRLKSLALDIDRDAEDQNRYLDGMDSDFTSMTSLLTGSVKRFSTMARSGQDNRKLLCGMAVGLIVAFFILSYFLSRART
# UniProt Q9UIG0: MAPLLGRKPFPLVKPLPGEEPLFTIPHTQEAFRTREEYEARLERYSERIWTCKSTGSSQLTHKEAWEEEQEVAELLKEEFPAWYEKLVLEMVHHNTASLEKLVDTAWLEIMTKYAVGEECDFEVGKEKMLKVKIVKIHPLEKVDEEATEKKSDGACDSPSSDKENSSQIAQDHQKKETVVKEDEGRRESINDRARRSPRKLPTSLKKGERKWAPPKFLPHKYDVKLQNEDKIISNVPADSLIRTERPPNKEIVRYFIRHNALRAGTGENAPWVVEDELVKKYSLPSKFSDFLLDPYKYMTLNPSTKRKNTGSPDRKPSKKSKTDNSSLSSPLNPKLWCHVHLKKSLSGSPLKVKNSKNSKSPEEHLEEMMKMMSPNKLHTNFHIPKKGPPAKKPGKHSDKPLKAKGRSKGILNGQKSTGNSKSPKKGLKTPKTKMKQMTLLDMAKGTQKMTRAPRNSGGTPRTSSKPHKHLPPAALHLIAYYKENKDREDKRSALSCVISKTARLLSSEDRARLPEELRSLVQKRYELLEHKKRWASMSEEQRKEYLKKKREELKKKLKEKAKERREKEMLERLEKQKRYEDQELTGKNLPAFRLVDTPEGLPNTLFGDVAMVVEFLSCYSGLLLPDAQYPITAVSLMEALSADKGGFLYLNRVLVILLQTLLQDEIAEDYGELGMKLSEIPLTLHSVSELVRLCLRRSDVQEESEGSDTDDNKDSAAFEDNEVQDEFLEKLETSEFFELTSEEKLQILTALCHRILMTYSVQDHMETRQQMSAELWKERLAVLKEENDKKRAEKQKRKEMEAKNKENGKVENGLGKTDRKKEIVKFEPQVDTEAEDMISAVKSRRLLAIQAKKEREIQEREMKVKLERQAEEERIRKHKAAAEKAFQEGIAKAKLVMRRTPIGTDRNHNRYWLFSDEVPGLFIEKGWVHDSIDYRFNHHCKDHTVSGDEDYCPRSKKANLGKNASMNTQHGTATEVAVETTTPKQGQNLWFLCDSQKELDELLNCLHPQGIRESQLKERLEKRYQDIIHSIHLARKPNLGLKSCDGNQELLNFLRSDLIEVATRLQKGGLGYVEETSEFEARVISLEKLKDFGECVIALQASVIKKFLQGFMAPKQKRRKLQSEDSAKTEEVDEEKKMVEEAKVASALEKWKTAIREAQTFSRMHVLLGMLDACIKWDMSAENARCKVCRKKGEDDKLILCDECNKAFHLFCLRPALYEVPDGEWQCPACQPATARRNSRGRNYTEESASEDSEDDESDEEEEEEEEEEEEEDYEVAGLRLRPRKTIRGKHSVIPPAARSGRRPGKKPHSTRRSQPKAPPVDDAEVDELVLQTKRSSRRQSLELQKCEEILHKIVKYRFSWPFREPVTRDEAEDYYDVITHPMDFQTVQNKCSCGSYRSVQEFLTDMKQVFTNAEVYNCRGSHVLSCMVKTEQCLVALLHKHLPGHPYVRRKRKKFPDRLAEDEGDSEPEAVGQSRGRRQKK
# UniProt O00512: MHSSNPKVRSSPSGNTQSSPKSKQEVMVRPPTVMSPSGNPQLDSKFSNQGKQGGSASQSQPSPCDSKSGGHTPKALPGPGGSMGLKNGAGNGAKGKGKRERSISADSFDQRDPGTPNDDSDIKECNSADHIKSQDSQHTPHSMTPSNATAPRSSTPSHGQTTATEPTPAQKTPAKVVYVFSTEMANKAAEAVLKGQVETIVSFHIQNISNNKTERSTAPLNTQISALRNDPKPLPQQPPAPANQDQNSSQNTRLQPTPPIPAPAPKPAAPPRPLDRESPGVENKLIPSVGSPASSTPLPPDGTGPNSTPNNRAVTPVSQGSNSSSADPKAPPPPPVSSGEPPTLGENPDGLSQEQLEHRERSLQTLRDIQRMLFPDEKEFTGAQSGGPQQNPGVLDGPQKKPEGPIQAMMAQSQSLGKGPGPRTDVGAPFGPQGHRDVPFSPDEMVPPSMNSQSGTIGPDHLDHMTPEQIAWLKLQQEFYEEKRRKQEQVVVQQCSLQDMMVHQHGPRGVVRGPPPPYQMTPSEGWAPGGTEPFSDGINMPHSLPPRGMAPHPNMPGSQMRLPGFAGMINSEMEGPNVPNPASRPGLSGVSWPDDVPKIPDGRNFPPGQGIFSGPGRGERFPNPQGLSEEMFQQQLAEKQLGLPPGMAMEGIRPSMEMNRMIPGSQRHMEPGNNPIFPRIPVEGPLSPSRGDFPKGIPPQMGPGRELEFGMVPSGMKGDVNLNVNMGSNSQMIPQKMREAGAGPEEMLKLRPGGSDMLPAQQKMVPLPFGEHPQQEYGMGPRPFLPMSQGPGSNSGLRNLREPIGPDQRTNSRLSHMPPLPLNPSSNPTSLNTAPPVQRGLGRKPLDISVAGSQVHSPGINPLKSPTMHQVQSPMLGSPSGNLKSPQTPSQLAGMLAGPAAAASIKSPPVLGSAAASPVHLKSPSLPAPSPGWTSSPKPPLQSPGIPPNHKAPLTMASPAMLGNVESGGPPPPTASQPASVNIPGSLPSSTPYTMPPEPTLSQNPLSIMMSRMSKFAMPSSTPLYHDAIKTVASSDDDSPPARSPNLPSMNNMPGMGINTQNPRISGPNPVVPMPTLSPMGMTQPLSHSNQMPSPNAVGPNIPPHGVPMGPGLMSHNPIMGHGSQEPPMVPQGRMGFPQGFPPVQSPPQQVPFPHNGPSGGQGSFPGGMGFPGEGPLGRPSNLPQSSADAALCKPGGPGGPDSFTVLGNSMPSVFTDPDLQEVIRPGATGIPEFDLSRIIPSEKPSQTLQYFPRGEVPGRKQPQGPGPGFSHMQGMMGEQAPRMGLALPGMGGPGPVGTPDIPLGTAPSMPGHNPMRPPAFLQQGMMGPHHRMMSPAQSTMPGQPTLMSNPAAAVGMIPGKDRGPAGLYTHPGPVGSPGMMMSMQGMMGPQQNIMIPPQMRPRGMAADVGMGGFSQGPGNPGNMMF
# UniProt O60238, whole entry, looked up: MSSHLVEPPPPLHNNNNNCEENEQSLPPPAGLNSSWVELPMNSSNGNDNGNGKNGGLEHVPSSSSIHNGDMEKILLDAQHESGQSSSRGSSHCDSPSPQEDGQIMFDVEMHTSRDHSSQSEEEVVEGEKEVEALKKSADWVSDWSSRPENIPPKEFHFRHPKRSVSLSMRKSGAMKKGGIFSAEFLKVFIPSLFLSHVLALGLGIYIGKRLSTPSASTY
# UniProt Q8TBE0: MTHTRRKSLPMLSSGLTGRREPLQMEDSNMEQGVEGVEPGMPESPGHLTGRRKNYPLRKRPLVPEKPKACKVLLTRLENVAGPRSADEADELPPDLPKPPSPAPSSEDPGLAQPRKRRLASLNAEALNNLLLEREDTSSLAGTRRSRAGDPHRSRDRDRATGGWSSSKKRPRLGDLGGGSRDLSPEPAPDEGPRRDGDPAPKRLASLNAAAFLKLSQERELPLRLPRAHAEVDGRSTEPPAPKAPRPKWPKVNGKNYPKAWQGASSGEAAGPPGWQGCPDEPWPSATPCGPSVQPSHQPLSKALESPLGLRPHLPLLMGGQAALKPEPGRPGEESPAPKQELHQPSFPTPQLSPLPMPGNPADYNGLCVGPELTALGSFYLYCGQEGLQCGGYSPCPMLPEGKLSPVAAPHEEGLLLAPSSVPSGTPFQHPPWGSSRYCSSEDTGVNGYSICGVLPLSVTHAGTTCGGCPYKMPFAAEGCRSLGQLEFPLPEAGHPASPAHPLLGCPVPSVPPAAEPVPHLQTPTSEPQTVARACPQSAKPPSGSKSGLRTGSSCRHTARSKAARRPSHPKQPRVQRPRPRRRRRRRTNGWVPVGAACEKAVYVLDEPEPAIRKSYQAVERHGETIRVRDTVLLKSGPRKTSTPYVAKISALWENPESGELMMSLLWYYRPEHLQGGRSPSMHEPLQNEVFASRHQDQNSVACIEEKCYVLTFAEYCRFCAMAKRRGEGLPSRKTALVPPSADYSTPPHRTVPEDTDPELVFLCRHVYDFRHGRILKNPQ
# UniProt Q9HCU9: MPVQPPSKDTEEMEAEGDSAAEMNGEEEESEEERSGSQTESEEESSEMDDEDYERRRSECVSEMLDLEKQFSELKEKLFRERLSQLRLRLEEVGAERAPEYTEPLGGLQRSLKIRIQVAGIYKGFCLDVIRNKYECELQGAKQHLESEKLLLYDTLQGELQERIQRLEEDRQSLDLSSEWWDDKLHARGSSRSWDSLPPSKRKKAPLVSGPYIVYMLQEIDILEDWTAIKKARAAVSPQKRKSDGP
# Compound: NCC(=O)Nc1ccc(-n2nc(C(F)(F)F)cc2-c2ccc3c(ccc4ccccc43)c2)cc1
# Experiment: log2 fold change, soluble protein after heating vs DMSO (PISA); higher = thermal stabilisation; K562 cells, 10 uM, 30 min; active = over 0.2 and 3.5 SD of the protein, either way, in both replicates (recomputed)
# How it was run: (§1)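 Soluble protein was defined as the supernatant after 21,000xg for 90 min. It came from K562 cells at 2×10^6 cells/mL given 10 μM compound for 30 min, heated in aliquots for 3 min across 48°C-58°C, pooled, and extracted in PBS with 0.5% NP-40 at 4°C, and was quantified by TMTpro 16plex LC-MS/MS with equalised channel sums. Thermal stability against control samples, from duplicates, is reported as log2 fold change.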
row,Target,log2 fold change
1,BCL7B (UniProt Q9BQE9),inactive: -0.072
2,BCL2L11 (UniProt O43521),inactive: 0.147
3,BIN1 (UniProt O00499),inactive: -0.205
4,BRCA1 isoform 7 (UniProt P38398),inactive: 0.103
5,BET1L (UniProt Q9NYM9),inactive: 0.014
6,BFAR (UniProt Q9NZS9),inactive: 0.136
7,AURKB isoform 5 (UniProt Q96GD4),inactive: -0.066
8,AURKAIP1 (UniProt Q9NWT8),inactive: 0.143
9,BAZ1B (UniProt Q9UIG0),inactive: -0.034
10,AUNIP isoform 2 (UniProt Q9H7T9),inactive: 0.073
11,BCL9 (UniProt O00512),inactive: -0.206
12,AXIN1 (UniProt O15169),inactive: -0.174
13,BNIP3L (UniProt O60238),inactive: 0.017

# Compound: Nc1ccccc1NC(=O)c1ccc(CNC(=O)OCc2cccnc2)cc1 [entinostat]
# Experiment: as above
# How it was run: as §1
row,Target,log2 fold change
1,ATXN2 (UniProt F8W0B5),inactive: -0.054
2,BAIAP2 isoform 4 (UniProt Q9UQB8),inactive: -0.095
3,BHMT (UniProt Q93088),inactive: 0.249
4,BPIFB1 (UniProt Q8TDL5),inactive: 0.257
5,BCL2L11 (UniProt O43521),inactive: 0.025
6,BRCA1 isoform 7 (UniProt P38398),inactive: -0.274
7,BCL7A isoform 2 (UniProt Q4VC05),inactive: -0.067
8,B4GALT2 isoform 3 (UniProt O60909),inactive: 0.009
9,BET1L (UniProt Q9NYM9),inactive: -0.203
10,AURKAIP1 (UniProt Q9NWT8),inactive: 0.028
11,BAZ1B (UniProt Q9UIG0),inactive: -0.117
12,BLZF1 (UniProt Q9H2G9),inactive: 0.091
13,AUNIP isoform 2 (UniProt Q9H7T9),inactive: 0.003
14,BPTF (UniProt Q12830),inactive: -0.028
15,BCL9 (UniProt O00512),inactive: -0.088
16,B3GNT8 (UniProt Q7Z7M8),inactive: -0.037

# Compound: O=C(CCCCCCC(=O)Nc1ccccc1)NO [vorinostat]
# Experiment: as above
# How it was run: as §1
row,Target,log2 fold change
1,ATXN2 (UniProt F8W0B5),inactive: -0.154
2,BAHD1 (UniProt Q8TBE0),inactive: -0.136
3,BRMS1 (UniProt Q9HCU9),inactive: -0.053
4,BCL2L11 (UniProt O43521),inactive: -0.089
5,BAP18 isoform 3 (UniProt Q8IXM2),inactive: 0.192
6,BOD1 (UniProt Q96IK1),inactive: -0.091
7,BAZ1B (UniProt Q9UIG0),inactive: 0.281
8,BCAS3 isoform 8 (UniProt Q9H6U6),inactive: 0.021
9,ATRX (UniProt P46100),inactive: -0.016
10,BCL9 (UniProt O00512),inactive: -0.056
11,AXIN1 (UniProt O15169),inactive: 0.21

# Compound: O=C(CCCCCCNC(=O)c1cnc(N(c2ccccc2)c2ccccc2Cl)nc1)NO [citarinostat]
# Experiment: as above
# How it was run: as §1
row,Target,log2 fold change
1,ATXN2 (UniProt F8W0B5),inactive: -0.031
2,BAHD1 (UniProt Q8TBE0),inactive: -0.016
3,BRMS1 (UniProt Q9HCU9),inactive: -0.097
4,BPIFB1 (UniProt Q8TDL5),inactive: 0.011
5,BCL2L11 (UniProt O43521),inactive: 0.017
6,BORCS8 (UniProt Q96FH0),inactive: -0.054
7,BCL7A isoform 2 (UniProt Q4VC05),inactive: 0.134
8,BET1L (UniProt Q9NYM9),inactive: -0.002
9,AURKB isoform 5 (UniProt Q96GD4),inactive: -0.19
10,AURKAIP1 (UniProt Q9NWT8),inactive: -0.088
11,BAZ1B (UniProt Q9UIG0),inactive: 0.254
12,BCAS3 isoform 8 (UniProt Q9H6U6),inactive: -0.104
13,BCL9 (UniProt O00512),inactive: 0.055
14,BNIP3L (UniProt O60238),inactive: 0.061

# Compound: O=C(O)c1ccc2c(c1)nc(Nc1cccc(Cl)c1)c1ccncc12 [silmitasertib]
# Experiment: as above
# How it was run: as §1
row,Target,log2 fold change
1,ATXN2 (UniProt F8W0B5),inactive: 0.069
2,BAHD1 (UniProt Q8TBE0),inactive: 0.08
3,BRMS1 (UniProt Q9HCU9),inactive: -0.042
4,BCL7B (UniProt Q9BQE9),inactive: -0.325
5,BCL2L11 (UniProt O43521),inactive: -0.008
6,BIN1 (UniProt O00499),inactive: -0.091
7,BCL7C (UniProt Q8WUZ0),inactive: -0.141
8,BAP18 isoform 3 (UniProt Q8IXM2),inactive: -0.119
9,BRCA1 isoform 7 (UniProt P38398),inactive: -0.219
10,BET1L (UniProt Q9NYM9),inactive: 0.063
11,BFAR (UniProt Q9NZS9),inactive: 0.133
12,BOD1 (UniProt Q96IK1),inactive: -0.043
13,AURKAIP1 (UniProt Q9NWT8),inactive: 0.044
14,BAZ1B (UniProt Q9UIG0),inactive: 0.002
15,"BRAF, A0A2R8Y8E0",inactive: -0.064
16,BNIP3L (UniProt O60238),inactive: 0
